These results are taken from publication PMC5835772.

Amino acid sequences for entries named in this document (tags omitted).
UniProt Q8N0S6: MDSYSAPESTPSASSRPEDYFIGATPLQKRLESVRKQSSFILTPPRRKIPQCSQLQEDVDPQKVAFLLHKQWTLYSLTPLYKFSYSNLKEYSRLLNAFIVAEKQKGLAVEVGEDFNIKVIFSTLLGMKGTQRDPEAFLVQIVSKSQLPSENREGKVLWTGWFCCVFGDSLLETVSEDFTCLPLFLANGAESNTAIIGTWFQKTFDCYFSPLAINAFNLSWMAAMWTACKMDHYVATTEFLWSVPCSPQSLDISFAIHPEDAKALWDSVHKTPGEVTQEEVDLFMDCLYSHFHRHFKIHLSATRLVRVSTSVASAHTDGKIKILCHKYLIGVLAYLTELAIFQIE

The target in this assay is CENP-N (as it stands in the CENP-LN complex) (human) (UniProt Q96H22). Briefly: cryo-EM structure; reconstituted complex of CENP-A NCP (147 bp DNA) and CENP-LN; single-particle analysis, average resolution 5.8 Å; known crystal structures and a crude model of CENP-N^N docked into the map; both purified.

Results are given in words; binding and its absence hold for the method and conditions named. Some binding calls cover weakened binding; strength is not graded here.

With “CENP-L (as it stands in the CENP-LN complex) (from UniProt Q8N0S6 1-344) (other; other documents disagree on this pair)”, the binding result is listed as “binds”.
